Tested on: RBCs
Assay: Volatile collection (SPME) and GC-MS analysis of RBC headspace
Type: cell-based, Human
Experimental: RBCs (1 ml) were transferred to 4 ml glass vials closed with auto-sampler screw caps, and equilibrated in a thermostat at 38° C. for 15 min. Then, 2.5 μl of HMBPP or Nanopure water were added to the RBCs samples (final concentration: 10 μM HMBPP per sample). Volatiles were collected from the headspace using solid phase micro-extraction (SPME; Supelco, Bellmonte, Pa., USA) (M. J. Yang, el al., J. Chem. Educ., 74, 1130-1132 (1997) and A. K. Borg-Karlson and R. Mozuraitis, Naturforsch., C. 51, 599-602 (1996)). […] Electron ionisation mass spectra were determined at 70 eV with the ion source kept at 230° C. and mass spectra were obtained at mass to charge ratio (m/z) 29-400. […] A similar protocol was used for the quantification of CO2, with the mass spectral data and GC retention times being compared with emission from frozen CO2. The relative amounts of CO2 in arbitrary units were determined from the areas of the respective chromatogram peaks using single ion display mode at m/z 44±0.5 Da. The amounts of identified compounds were quantified by the use of extracted ion chromatograms, since they are very minute. […] The estimations were based on the very same quantifications given in ‘arbitrary area units’. […]

Structure (SMILES) | proportion of compound identified in the headspace for hRBCs, % by weight (of the combined compounds) [% by weight]
C=C1CCC2CC1C2(C)C (stereo not drawn) [β-pinene] | 5
CC1=CCC2CC1C2(C)C (stereo not drawn) [α-pinene] | 7

— US11638424B2, “Mosquito attractant formulations and uses thereof” (priority 2017, dated 2023)
